We go through one substance from patent US6339069B1 (Elan PharmaceuticalsTechnologies, Inc., priority 1996, dated 2002).

Some peptides are written in HELM: one residue between dots, names in brackets for other building blocks, links after the first $. Where only a bound is given, the exact number is not on record here.

This data set can be described thus: general procedure: solution-phase peptide synthesis; 1,3-dicyclohexylcarbodiimide / 4-dimethylaminopyridine (p-nitrophenyl ester). The settings on record: lipidation step.

“PEPTIDE1{[MeOSuc].A.A.P.V.[DOPE]}$$$$V2.0”: the “final purity (method not given)” value (TLC, two solvent systems) is given as greater than 99%. Under “on the basis of DOPE”, this substance registered a step yield of 95% yield.
